Assay results as given in the supplement of paper PMC3334620.
In all, about 33,000 sequences were measured (“E-score (-0.5 to 0.5)”: median about -0.0014, highest 2% from about 0.25 on). This is one part of the list.

target: T1, Cad1 (UniProt P24813); experiment: PBM E-score (8-mer binding enrichment) (E-score (-0.5 to 0.5)); higher = stronger / more preferred TF binding; conditions: protein concentration: 100 nM; construct: GST-full length
T1 sequence: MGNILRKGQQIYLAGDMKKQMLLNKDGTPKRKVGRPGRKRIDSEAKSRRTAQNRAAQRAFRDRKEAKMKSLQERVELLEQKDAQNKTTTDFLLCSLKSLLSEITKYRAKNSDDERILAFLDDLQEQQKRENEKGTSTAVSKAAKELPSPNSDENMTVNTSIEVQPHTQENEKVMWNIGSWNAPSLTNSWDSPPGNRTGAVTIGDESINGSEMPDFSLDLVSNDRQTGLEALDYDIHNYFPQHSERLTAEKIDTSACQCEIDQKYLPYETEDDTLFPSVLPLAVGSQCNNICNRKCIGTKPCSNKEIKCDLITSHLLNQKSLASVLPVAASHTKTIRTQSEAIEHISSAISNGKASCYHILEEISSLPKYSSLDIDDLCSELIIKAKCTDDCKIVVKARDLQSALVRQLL
Procedure, shortened: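 PURExpress in vitro transcription/translation supplied GST-tagged yeast transcription factors, either full-length or DNA-binding domain. Applied at about 100-200 nM to universal all-10-mer Agilent arrays double-stranded by primer extension, the bound protein was detected with fluorescent anti-GST. E-scores, modified Wilcoxon-Mann-Whitney statistics, were given by the Universal PBM Analysis Suite to ungapped eight-base words pooled with their reverse complements after masliner normalisation.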

Point of comparison: AAAACCTT, “PBM E-score” value -0.164. Against it:
- AAGAGGAA — higher, 0.0448
- ACATATTA — higher, 0.317
- CTGGTAAG — higher, 0.0865
- TCAGCGCA — higher, 0.0125
- GATGCGCA — higher, 0.153
- GGCGGTAC — higher, -0.0694
- ATGTGTGG — higher, 0.0124
- CGAATTCC — higher, 0.111
- AGTCCCAC — higher, -0.0814
- AAAGCTTA — higher, 0.201
- GAGCATAC — higher, -0.0838
- ACAACCAA — higher, 0.115
- CGAAATAA — higher, 0.214
- GCAACAAC — higher, 0.12
- TCACTTCA — higher, -0.0607
- ATGCAATA — higher, 0.0766
- AATAAAAT — higher, 0.166
- ATCTCCAC — higher, -0.0913
- GCCTGGCA — lower, -0.171
- GGTGTAGA — higher, -0.0326
- AGCACCGG — higher, -0.123
- AGCATCCT — higher, -0.152
- AGACATCT — higher, -0.136
- GATTCCCA — higher, -0.0478
- AAGCGTTC — higher, -0.0171
- GGAAGTAC — higher, -0.0293
- CTATCCTC — lower, -0.17
- ATATCGGC — higher, 0.0995
- TACCAGTA — higher, 0.0117
- GTCCCGAC — higher, -0.0157
- ACCGACGA — higher, -0.152
- GTGCTGAA — higher, 0.0959
- GGGTGGAA — higher, -0.16
- GGTCGTAC — higher, -0.102
- GAAGACTC — higher, 0.00854
- TATTAAAA — higher, 0.194
- CATTAGGA — higher, 0.0351
- CCCTTCCG — lower, -0.262
- ATATATCC — higher, 0.297
- AGGTAGAT — higher, -0.069
- ACCGCGGT — higher, 0.236
- ATTACAGC — higher, -0.121
- AACGCGAT — higher, 0.0132
- ATTAGAAT — higher, 0.21
- CGCCAGAG — higher, -0.0973
- CTGCAAAA — higher, 0.00476
- ACGCATTG — higher, -0.0523
- GATCGTAA — higher, -0.052
- AAAAGATG — higher, 0.156
- CAGAACCA — higher, -0.145
- CCGAGATC — higher, 0.0304
- GACAAGAA — higher, 0.0396
- CCCAACTC — higher, 0.0363
- CAAGGTTC — lower, -0.166
- GACGTCGC — higher, -0.0716
- CATGGGCC — lower, -0.172
- GGTCCAAC — lower, -0.249
- AATCGCGG — higher, 0.0411
- CGTCAGGA — higher, 0.127
- GACTGAAC — higher, -0.109
- GATGTACA — higher, 0.171
- ACCTGGTG — lower, -0.215
- AAAGGAGT — higher, -0.0982
- AGATGTAT — higher, 0.0847
- ACAGAATC — higher, 0.0246
- CACCTGCC — higher, -0.0155
- ACTGCGAC — higher, 0.105
- TATATTAA — higher, 0.326
- ACACGTGA — higher, 0.026
- TAACTCGA — higher, 0.275
- CAGTAGCG — higher, 0.019
- AACTTGTC — higher, 0.0539
- CTAGGTAA — higher, 0.0317
- ACCGCTAG — lower, -0.2
- AAACGAGG — higher, -0.146
- ACAGCTCT — lower, -0.346
- ACTAGAGT — higher, -0.123
- AATCTGCG — higher, 0.00478
- AACAGTAA — higher, 0.0812
- AAAAAGTA — higher, -0.00035
- CCCTTTAC — higher, -0.0419
- ACTGTTAA — higher, 0.0465
- CTCTAGAG — higher, -0.0455
- GTCTGTCA — higher, 0.118
- CCCTCTGA — lower, -0.205
- AGGAAAAG — higher, -0.00624
- CATCGTCA — higher, 0.135
- GTGGGCCA — higher, 0.118
- GTTCAGCA — higher, 0.0509
- ACGCCCGC — higher, -0.0739
- AACTTTCG — higher, 0.0133
- CAACGATG — higher, -0.0351
- GATGACAC — higher, 0.0339
- AATGGATA — higher, -0.0508
- ATCGAGGC — higher, 0.0987
- CTTATGAC — higher, 0.092
- GAATTCGA — higher, 0.123
- CGTTATTC — higher, 0.15
- AGCATGTA — higher, -0.059
- GCTGAGAA — higher, 0.0017
- ACTTTTCC — higher, 0.0268
- GGTATACC — higher, 0.197
- CACCGAGC — higher, 0.114
- AGTGTTCC — higher, 0.0953
- GGGGACCA — lower, -0.199
- CCATGCAC — higher, -0.064
- TATGAGCA — higher, -0.0237
- ATAGAGAG — lower, -0.301
- TGTTGCAA — higher, 0.228
- CCTCACCG — lower, -0.335
- CCCCCGAC — lower, -0.279
- ACCGAGGT — higher, -0.133
- CGAATAAC — higher, -0.0156
- GTGTTCAA — higher, 0.00707
- GAGCCAGC — lower, -0.243
- ACTTTAAA — higher, 0.0246
- AGACGTGG — higher, -0.0369
- AGTGCTCA — higher, -0.103
- AAAGCGGC — higher, 0.174
- CTCTCTTA — higher, -0.117
- CGAAGTTA — higher, 0.0875
- AAGTCCTC — higher, -0.0441
- CAAGCTCA — higher, -0.0161
- AGCGGTGG — lower, -0.2
- CGATTATA — higher, 0.184
- AATCCTGT — higher, 0.097
- ACGAAAGA — higher, 0.0722
- CATGTTTC — higher, 0.197
- CTCGTAAA — higher, 0.0173
- TGATTGAA — higher, 0.115
- ATTTATCA — higher, 0.239
- AGGCCCGA — higher, -0.0508
- CGCCCTAG — higher, -0.103
- CACGTGGA — higher, 0.154
- AACTGTCC — higher, 0.00027
- ATGACGCG — higher, 0.142
- CTCACTTA — higher, 0.0639
- AGACCGTA — lower, -0.267
- TTGAACAA — higher, 0.0402
- AAAGTGTA — higher, 0.181
- TCGCTTAA — higher, 0.149
- ACTAGATC — higher, -0.0134
- ATGCGTGG — lower, -0.183
- ACCTAACG — higher, -0.133
- ATCTAAGG — higher, 0.0177
- ATCCGTGA — higher, 0.129
- GACCTCGA — higher, 0.0881
- CCCGGCAG — higher, -0.0576
- CAAGGATC — higher, 0.057
- CAGTGACA — higher, 0.0358
- ATATAAAT — higher, 0.195
- AACCCAAA — higher, 0.0249
- ACTAGCTG — higher, -0.0129
- CAAGCCCC — lower, -0.256
- GAGCGGCA — higher, -0.0597
- CCCGCGAC — higher, -0.0213
- AGTTAGCG — higher, 0.156
- GTAACAGA — higher, 0.201
- CGTTACAA — higher, 0.16
- CACTTAGA — higher, 0.171
- GGACTCAA — higher, -0.0941
- ATAACGAG — higher, -0.0492
- GGAACGCA — higher, -0.0134
- AACATTAG — higher, 0.0321
- TACAAAAA — higher, 0.111
- CAGACGGC — higher, -0.0553
- GCACAGGC — higher, 0.0211
- GACGTTGA — higher, 0.08
- CGGGCCGC — higher, -0.117
- AGCAGGCG — higher, -0.0168
- ATTACCAG — higher, 0.0906
